Reference: the NIST ThermoML archive (doi:10.1021/acs.jced.6b00523)
± gives the expanded uncertainty stated by the source.

Experiment: molar heat capacity at constant pressure
Conditions: 101.33 kPa, Metastable crystal, DSC

O=C(c1ccccc1)c1ccccc1 [benzophenone]
Conditions | molar heat capacity at constant pressure [J/K/mol]
214.2 K | 168.8 ± 6.9
218.1 K | 171.5 ± 7
222.1 K | 174.4 ± 7.1
226.1 K | 176.9 ± 7.2
230.1 K | 179.8 ± 7.3
234.1 K | 181.4 ± 7.4
238 K | 183.6 ± 7.5
242 K | 187.8 ± 7.7
246 K | 191.3 ± 7.8
250 K | 193.4 ± 7.9
254 K | 196.9 ± 8
258 K | 198.8 ± 8.1
262.1 K | 201.9 ± 8.2
266.1 K | 204.7 ± 8.3
270.1 K | 207.6 ± 8.4
274.1 K | 209.9 ± 8.5
278.1 K | 213.5 ± 8.7
282.1 K | 215.6 ± 8.8
286.1 K | 218.8 ± 8.9
290.1 K | 221.5 ± 9
294.1 K | 224 ± 9.1
